## Library screen at single concentrations

Chains of the proteins cited; added tags and fusions are not shown. Residues count along the entry.
UniProt Q4DA54, 1-478: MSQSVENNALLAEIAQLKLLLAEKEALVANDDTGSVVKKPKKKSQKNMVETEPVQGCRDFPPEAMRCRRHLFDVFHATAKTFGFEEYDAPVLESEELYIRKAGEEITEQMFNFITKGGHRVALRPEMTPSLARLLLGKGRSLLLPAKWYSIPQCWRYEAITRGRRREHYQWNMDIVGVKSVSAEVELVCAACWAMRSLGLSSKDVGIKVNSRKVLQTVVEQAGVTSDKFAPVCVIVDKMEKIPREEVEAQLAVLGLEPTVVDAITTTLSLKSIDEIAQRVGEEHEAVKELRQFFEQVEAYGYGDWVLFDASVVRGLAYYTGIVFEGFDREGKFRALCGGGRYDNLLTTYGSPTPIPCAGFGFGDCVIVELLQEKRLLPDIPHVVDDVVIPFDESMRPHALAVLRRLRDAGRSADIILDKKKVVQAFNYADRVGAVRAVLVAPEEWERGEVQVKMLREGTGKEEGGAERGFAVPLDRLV
UniProt A4I591, 1-473: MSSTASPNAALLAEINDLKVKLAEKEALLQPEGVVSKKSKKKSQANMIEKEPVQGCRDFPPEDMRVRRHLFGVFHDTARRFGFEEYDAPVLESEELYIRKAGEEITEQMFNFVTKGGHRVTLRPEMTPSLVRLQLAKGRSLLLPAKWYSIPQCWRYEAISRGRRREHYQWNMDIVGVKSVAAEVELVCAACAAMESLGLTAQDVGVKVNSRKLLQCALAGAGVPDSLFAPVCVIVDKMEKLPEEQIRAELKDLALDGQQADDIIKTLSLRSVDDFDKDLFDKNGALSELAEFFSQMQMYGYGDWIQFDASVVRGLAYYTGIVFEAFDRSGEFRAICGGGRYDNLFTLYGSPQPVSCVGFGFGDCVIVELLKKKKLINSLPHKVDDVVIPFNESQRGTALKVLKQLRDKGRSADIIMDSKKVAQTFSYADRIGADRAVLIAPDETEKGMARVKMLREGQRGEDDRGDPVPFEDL

A: 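Assay of Toxoplasma gondii numbers, read through their beta-galactosidase reporter with a colour substrate. Compounds at 10 µM. The record gives no direction; the compounds picked for IC50 retests had high values, so higher reads as fewer parasites. About 67,000 compounds were tested under these conditions; 0.38% (about 260) showed 50% or more at least once.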
B: 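Histidine-tRNA ligase, Trypanosoma cruzi CL Brener (UniProt Q4DA54). Enzyme assay of histidyl-tRNA synthetase; the read-out is not stated. Concentration: 30 µM. Direction is inferred from retests: higher values go with stronger inhibition. Of about 69,000 compounds tested this way, about 31 (0.045%) reached 50% or more in at least one test.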
C: 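Histidine-tRNA ligase, Leishmania infantum (UniProt A4I591). Enzyme assay of histidyl-tRNA synthetase; the read-out is not stated. Concentration: 30 µM. The record gives no direction; compounds that gave an IC50 in retests scored well above the rest, so higher reads as stronger inhibition. The assay is labelled LdHisRS but filed under L. infantum. Size under these conditions: about 69,000 compounds, about 410 of them at 50% or above in at least one test.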
D: 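Whole-parasite assay of Trypanosoma brucei over 72 hours; the read-out is not stated. Tested at 30 µM. Higher reads as stronger inhibition (inferred: compounds with an IC50 in retests scored well above the rest). Values scatter widely below zero; nearly all retest evidence comes from the higher of the two concentrations used. Size under these conditions: about 64,000 compounds, about 940 of them at 50% or above in at least one test.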

The filed quantity is “Percent Effect” (%). The record does not define 0% and 100%; most values in the screen are far below 50% and negative numbers occur (in some assays of this library far below -100). The compounds are a random part of those screened.

Result for Cc1occc1C(=O)Nc1cccc(C(=O)OCC2CCCN2)c1 (centres undefined) was B: 9.877%; C: 1.961%.
Result for CN1CCC2(Cc3ccccc3CN(C(=O)CCN)C2)C1 (centres undefined) was A: 1.876%; B: 5.325%; C: -2.759%.
Result for Cc1ccc(-c2cnnc(N3CCCC3c3nccs3)n2)o1 (centres undefined) was A: -4.506%; B: 4.721%; C: 6.557%; D: -47.83%.
Result for Fc1ccccc1CN1CCCN(c2ncnc3[nH]ccc23)CC1 was A: -12.63%; B: 1.212%; C: 12.99%; D: 4.814%.
Result for [H][C@@]12CCN(C(=O)c3cccnc3)C[C@]1([H])[C@@H](CNS(C)(=O)=O)OC2 was A: 6.648%; D: -17.3%.
Result for CN(c1ccc(CNC(=O)c2ccc(O)nc2)cc1)C1CCCCC1 was A: -14.51%; B: 2.222%; C: 16.24%; D: -19.08%.
Result for CCOC(C)c1noc(CN2CCCN(c3ccccn3)CC2)n1 (centres undefined) was A: 7.101%; B: 0.6452%; C: 7.071%; D: -11.58%.
Result for CCn1ccnc1CN1CCN(CC(O)c2ccco2)CC1 (centres undefined) was A: -3.865%; B: 5.294%; C: 12.84%.
Result for CC(=O)N1CCC(c2cccc(NC3CCOCC3)n2)CC1 was A: -2.194%; B: 5.747%; C: 7.143%; D: -14.78%.
Result for Cc1cc(C(=O)N2CCC3(CCC(=O)N(CC(N)=O)C3)CC2)ccc1O was A: -32.4%; B: 1.339%; C: 20.99%; D: -18.58%.
Result for CN1CCCN(C(=O)c2csc3nc(-c4ccc(Cl)cc4)cn23)CC1 was A: -14.54%; B: 16.83%; C: 24.39%; D: -18.39%.
Result for OC(COCc1ccccc1)CSc1nnc2ccccn12 (centres undefined) was B: 6.897%; C: 8.065%; D: -16.02%.
Result for O=C(O)C(F)(F)F.O=C(O)C(F)(F)F.c1cncc(OCc2noc3c2CN(Cc2ccco2)CC3)c1 was A: 10.83%; D: -42.06%.
Result for N#Cc1ccc(S(=O)(=O)NC(=O)COc2ccc3c(c2)CCC3)cc1 was A: -18.78%; B: 3.812%; C: 13.89%; D: -1.904%.
Result for CC(C)c1noc(CCNC(=O)N2CCN(c3cccs3)CC2)n1 was A: -23.91%; B: 9.135%; C: 26.83%; D: -35.81%.
Result for [H][C@@]12CCC(=O)N(c3ccccc3)[C@]1([H])CCN2C(=O)c1ccc(C)o1 was A: 3.383%; D: 15.46%.
Result for CC1CN(c2cc(CNCc3cccc4c3OCCO4)ccn2)CCO1 (centres undefined) was A: -9.475%; B: 6.349%; C: 33.33%; D: -14.74%.
Result for CCOC(=O)C1(Cc2cccc(OC)c2)CCN(Cc2ncc[nH]2)CC1 was A: -0.6168%; B: -10.63%; C: 14.17%.
Result for NC1(c2nc(C(F)(F)F)cc(=O)[nH]2)CCCCC1 was B: 8.642%; C: 23.53%.
Result for CCOc1ccc(Br)cc1S(=O)(=O)N(CC)Cc1ccc(N(C)C)cc1 was A: -4.016%; B: 6.077%; C: 8.29%; D: 3.311%.
Result for COc1cc(C)nc(N2CCN(C(=O)c3cccc(C#N)c3)CC2)n1 was A: -4.155%; B: 1.734%; C: 4.386%; D: 16.35%.
Result for CC(C)NC(=O)C1CCc2nnc(CNC(=O)c3cccnc3)n21 (centres undefined) was A: -6.908%; B: 6.509%; C: 9.655%.
Result for CCn1ncc(CN2CCC(c3ncc(Cl)cc3S(C)(=O)=O)CC2)c1C was A: -14.43%; B: 6.78%; C: 11.19%; D: 10.3%.
Result for [H][C@@]12CC(C)=CC[C@]1([H])CN(C(=O)c1ccc(-c3nnn(C)n3)cc1)C2 was A: -12.39%; D: 59.61%.
Result for COc1ccc2c(c1)C(C(=O)N(C)CCc1scnc1C)CC(=O)N2 (centres undefined) was A: 7.719%; B: 5.028%; C: 5.263%; D: -17.71%.
Result for O=C(O)C1CCCN(c2nc3c(-c4ccccc4)csc3c(=O)[nH]2)C1 (centres undefined) was A: 12.74%; B: -2.062%; C: 10.43%; D: 2.711%.
Result for CCn1cc(CN2CCN(C(=O)c3cc(Br)cs3)CC2)c(C)n1 was A: 16.04%; B: 2.591%; C: 10.75%; D: -14.77%.
Result for Cn1c(C2CCCN2C(=O)c2cn(CCN)nn2)nc2ccccc21 (centres undefined) was A: 15.58%; B: 6.186%; C: 12.64%; D: -27.5%.
Result for NC(=O)Cn1cc(NC(=O)N2CCCC(O)C2)cn1 (centres undefined) was A: -5.248%; B: 7.059%; C: -5.505%.

The first 2 entries again:

* Cc1occc1C(=O)Nc1cccc(C(=O)OCC2CCCN2)c1 (centres undefined) : B: 9.877%; C: 1.961%
* CN1CCC2(Cc3ccccc3CN(C(=O)CCN)C2)C1 (centres undefined) : A: 1.876%; B: 5.325%; C: -2.759%

Measurements from “University of Dundee, Small-Polar-MMV Screening Library” (2021), ChEMBL document CHEMBL3988442.